For at least one entry, the source does not settle the construct or the ends of the probe. For some assays here: Weaker means in comparison with the reference protein, sequence or condition of that experiment.

From PMC10450177 come the findings set out here.

The subject of series [1] is CasDinG arch domain deletion. The experiment in a line: fluorescence anisotropy. Conditions: 5 mM Mg2+, binding impaired vs WT; 100 mM Tris pH 8.0, 1 mM TCEP, 5 mM MgCl2, +/- 1 mM AMP-PNP, 10 nM FAM-ssDNA, CasDinG 0-2.5 uM, room temperature; recombinant protein; protein details: StrepII; single-stranded DNA. (In general: Polarisation of emitted light reports the rotation of a fluorescent probe.)

The subject of series [2] is CasDinG N-terminal domain deletion. In words: fluorescence anisotropy. The note with it: 5 mM Mg2+, binding not impaired vs WT; 100 mM Tris pH 8.0, 1 mM TCEP, 5 mM MgCl2, +/- 1 mM AMP-PNP, 10 nM FAM-ssDNA, CasDinG 0-2.5 uM, room temperature; recombinant protein; protein details: StrepII; single-stranded DNA.

Regarding “TCGTCACCAGTACAAACTACAACGCCTGTAGCATTCCACA [40 nt ssDNA (oligo 7)]”, the binding result in series [1] is recorded as “binds more weakly”; in series [2], “binds”.
